Assay results as given in article PMC4018993, “Use of “one-pot, mix-and-read” peptide-MHC class I tetramers and predictive algorithms to improve detection of cytotoxic T lymphocyte responses in cattle” (Veterinary Research, 2014).
The amount applied is not stated for every result.

Tested on: PBMC of BoLA-A18 cattle
Experiment: ex vivo tetramer staining of PBMC from ITM-vaccinated cattle
Experimental: Three cattle of BoLA-A18 haplotype (typed with PCR primers [forward] 5’-[…]-3’ and [reverse] 5’-[…]-3’ specific for BoLA-6*01301) were vaccinated by ITM [24] using the T. parva strain Muguga 3308. Whole blood was collected from these cattle at the day of vaccination (day 0) and every two days till appearance of tetramer positive cells. PBMC were purified on Ficoll paque density gradients at 2500 rpm for 25 min and 5 × 10^5 PBMC were stained with the Tp1_214-224-BoLA-6*01301 tetramer as described in the flow cytometry procedure. This animal experiment was approved by the ILRI IACUC committee [# 2012.10].

VGYPKVKEEML [Tp1_214-224]
day of detection of tetramer positive CTL in peripheral blood (post-immunization with live parasite vaccine, Tp1_214-224-BoLA-6*01301 tetramer): 15 to 17 days
earliest day of CTL detection (post-vaccination, ITM, BoLA-A18 cattle, data not shown): 13 days
day of peak CTL response (post-vaccination, ITM, Figure 5): ~15 days
